Laboratory results as given in the supplement of paper PMC12823440, “Inhibitors supercharge kinase turnover through native proteolytic circuits” (Nature, 2025).
Structures can show the parent of a compound that is named as a salt. The list shows a part of the results. Hit calls seldom repeat between salt and free forms of one compound.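 In K562 cells expressing nanoluciferase-fused kinases, luminescence was recorded at 4 h intervals between 2 and 18 h, normalized as percent of control with DMSO at 100% and a positive control at 0%. A significant (2 sigma) signal drop marks a time point as decreased. The authors' rule for a hit is not shown and takes in more than the number of time points.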

The chains behind the UniProt entries cited, without tags or fusion partners. Where a name states a change or a piece, a line headed by the entry shows the natural chain unless it says otherwise.
UniProt P11362, whole entry, looked up: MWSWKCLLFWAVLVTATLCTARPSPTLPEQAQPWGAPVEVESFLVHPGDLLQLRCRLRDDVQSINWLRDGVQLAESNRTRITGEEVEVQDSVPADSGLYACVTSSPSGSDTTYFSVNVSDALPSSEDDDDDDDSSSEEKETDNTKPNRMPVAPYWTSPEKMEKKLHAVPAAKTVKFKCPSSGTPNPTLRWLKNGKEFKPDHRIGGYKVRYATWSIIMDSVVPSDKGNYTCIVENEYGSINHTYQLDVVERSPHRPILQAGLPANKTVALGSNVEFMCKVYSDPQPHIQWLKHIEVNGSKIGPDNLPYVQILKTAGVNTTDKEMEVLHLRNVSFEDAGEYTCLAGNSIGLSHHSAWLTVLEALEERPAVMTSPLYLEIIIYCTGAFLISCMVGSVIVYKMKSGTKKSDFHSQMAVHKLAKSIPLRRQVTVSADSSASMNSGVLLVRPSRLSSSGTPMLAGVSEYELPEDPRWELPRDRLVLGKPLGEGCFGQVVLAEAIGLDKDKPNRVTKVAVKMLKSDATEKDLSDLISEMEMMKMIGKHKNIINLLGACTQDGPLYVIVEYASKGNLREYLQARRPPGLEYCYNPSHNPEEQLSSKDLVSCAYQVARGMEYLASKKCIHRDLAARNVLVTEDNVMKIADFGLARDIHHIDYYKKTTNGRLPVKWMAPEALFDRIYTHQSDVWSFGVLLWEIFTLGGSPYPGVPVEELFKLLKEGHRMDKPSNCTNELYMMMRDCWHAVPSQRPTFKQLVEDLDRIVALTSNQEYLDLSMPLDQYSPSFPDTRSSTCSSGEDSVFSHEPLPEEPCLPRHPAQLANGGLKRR
UniProt P21802, whole entry, looked up: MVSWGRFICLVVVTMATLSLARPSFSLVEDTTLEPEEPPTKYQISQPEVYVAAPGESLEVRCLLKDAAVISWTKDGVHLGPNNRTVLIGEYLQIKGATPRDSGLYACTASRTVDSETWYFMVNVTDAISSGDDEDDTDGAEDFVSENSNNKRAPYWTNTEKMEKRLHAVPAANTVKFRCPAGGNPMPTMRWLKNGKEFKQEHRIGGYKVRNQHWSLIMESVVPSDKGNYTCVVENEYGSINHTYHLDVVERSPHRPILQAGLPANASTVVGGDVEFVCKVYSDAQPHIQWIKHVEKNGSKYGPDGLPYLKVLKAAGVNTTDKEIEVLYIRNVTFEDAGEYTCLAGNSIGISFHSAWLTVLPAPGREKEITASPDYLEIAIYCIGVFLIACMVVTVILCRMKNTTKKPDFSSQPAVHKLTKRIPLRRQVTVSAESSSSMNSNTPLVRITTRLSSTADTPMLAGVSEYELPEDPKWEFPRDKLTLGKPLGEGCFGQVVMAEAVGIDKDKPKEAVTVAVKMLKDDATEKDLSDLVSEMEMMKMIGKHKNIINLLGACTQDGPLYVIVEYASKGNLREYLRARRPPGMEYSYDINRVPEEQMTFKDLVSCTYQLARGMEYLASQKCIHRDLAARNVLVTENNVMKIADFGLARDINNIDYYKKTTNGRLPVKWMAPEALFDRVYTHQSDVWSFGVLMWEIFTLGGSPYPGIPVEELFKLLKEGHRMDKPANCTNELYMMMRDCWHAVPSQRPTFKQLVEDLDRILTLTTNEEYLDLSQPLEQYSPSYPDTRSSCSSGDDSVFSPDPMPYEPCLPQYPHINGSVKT
UniProt P22607, whole entry, looked up: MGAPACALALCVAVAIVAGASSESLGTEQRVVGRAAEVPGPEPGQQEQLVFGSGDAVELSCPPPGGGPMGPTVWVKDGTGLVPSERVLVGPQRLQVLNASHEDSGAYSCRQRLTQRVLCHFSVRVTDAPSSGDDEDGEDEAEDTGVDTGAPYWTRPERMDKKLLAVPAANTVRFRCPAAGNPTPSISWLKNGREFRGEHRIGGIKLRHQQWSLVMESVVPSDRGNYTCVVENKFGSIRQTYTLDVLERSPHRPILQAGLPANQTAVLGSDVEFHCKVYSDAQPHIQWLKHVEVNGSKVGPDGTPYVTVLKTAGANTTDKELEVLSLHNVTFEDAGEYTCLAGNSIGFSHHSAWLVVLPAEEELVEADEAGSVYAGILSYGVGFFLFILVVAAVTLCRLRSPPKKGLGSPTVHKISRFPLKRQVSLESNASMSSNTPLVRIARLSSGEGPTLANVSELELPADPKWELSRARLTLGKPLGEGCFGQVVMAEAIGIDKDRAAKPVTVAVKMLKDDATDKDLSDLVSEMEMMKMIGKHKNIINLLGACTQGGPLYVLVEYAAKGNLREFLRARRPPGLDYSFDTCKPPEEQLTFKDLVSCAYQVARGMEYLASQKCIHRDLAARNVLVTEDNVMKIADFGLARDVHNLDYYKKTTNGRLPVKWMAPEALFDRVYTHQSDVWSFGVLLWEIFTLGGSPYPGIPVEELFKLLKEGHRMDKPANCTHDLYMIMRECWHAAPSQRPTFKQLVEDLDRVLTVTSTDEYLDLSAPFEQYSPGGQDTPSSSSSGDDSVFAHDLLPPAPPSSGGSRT
UniProt P36888, whole entry: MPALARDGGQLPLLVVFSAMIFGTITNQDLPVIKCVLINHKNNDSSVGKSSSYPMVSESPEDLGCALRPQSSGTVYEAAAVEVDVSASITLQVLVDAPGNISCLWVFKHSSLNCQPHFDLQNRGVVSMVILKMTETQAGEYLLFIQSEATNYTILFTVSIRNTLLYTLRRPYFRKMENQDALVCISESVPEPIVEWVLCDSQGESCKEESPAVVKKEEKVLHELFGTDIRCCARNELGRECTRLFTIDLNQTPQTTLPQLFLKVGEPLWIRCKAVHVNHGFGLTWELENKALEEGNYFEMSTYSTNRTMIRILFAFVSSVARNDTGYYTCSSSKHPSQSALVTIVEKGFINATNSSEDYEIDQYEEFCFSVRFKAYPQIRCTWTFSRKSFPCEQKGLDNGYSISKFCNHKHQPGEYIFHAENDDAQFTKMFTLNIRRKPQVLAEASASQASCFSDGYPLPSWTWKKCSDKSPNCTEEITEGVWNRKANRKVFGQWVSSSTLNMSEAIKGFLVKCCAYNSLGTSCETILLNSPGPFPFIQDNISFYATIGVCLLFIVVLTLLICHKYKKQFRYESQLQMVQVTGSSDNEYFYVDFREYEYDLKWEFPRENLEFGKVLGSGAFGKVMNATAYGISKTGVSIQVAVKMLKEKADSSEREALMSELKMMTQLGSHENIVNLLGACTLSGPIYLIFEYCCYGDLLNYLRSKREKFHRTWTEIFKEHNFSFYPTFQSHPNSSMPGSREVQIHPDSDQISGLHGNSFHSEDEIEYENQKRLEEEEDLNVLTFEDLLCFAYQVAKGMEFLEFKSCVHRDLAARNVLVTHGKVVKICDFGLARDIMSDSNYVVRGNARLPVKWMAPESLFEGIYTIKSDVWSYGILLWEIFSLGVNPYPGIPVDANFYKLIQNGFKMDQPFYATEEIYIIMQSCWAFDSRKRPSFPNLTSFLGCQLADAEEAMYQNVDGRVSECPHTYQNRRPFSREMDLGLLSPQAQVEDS
UniProt P06241, whole entry, looked up: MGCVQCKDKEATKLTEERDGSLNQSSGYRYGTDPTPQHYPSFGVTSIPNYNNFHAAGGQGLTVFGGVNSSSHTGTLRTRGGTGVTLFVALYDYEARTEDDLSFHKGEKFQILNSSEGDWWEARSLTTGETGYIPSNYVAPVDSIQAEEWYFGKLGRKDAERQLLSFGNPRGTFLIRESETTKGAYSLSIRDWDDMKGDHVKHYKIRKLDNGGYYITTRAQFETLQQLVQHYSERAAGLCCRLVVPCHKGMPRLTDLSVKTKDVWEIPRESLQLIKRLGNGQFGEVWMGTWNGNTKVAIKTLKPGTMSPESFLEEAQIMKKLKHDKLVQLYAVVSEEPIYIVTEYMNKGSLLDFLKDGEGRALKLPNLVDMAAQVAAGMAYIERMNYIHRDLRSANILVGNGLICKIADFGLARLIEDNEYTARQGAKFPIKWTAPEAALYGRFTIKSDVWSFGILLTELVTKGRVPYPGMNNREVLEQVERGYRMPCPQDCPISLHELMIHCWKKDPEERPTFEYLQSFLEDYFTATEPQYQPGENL
UniProt P49840: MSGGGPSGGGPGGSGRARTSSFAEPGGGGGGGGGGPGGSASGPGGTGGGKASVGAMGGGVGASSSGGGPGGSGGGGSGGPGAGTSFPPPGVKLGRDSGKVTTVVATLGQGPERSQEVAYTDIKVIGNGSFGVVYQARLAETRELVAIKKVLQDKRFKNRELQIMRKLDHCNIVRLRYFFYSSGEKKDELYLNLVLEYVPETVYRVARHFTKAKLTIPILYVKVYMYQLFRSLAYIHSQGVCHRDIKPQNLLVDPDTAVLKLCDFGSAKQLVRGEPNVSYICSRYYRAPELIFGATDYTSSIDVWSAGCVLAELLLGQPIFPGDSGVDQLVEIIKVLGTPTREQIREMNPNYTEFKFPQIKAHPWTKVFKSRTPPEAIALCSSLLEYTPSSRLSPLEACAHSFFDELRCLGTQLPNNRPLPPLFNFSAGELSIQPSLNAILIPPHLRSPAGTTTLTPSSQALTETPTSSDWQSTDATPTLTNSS
UniProt P14616: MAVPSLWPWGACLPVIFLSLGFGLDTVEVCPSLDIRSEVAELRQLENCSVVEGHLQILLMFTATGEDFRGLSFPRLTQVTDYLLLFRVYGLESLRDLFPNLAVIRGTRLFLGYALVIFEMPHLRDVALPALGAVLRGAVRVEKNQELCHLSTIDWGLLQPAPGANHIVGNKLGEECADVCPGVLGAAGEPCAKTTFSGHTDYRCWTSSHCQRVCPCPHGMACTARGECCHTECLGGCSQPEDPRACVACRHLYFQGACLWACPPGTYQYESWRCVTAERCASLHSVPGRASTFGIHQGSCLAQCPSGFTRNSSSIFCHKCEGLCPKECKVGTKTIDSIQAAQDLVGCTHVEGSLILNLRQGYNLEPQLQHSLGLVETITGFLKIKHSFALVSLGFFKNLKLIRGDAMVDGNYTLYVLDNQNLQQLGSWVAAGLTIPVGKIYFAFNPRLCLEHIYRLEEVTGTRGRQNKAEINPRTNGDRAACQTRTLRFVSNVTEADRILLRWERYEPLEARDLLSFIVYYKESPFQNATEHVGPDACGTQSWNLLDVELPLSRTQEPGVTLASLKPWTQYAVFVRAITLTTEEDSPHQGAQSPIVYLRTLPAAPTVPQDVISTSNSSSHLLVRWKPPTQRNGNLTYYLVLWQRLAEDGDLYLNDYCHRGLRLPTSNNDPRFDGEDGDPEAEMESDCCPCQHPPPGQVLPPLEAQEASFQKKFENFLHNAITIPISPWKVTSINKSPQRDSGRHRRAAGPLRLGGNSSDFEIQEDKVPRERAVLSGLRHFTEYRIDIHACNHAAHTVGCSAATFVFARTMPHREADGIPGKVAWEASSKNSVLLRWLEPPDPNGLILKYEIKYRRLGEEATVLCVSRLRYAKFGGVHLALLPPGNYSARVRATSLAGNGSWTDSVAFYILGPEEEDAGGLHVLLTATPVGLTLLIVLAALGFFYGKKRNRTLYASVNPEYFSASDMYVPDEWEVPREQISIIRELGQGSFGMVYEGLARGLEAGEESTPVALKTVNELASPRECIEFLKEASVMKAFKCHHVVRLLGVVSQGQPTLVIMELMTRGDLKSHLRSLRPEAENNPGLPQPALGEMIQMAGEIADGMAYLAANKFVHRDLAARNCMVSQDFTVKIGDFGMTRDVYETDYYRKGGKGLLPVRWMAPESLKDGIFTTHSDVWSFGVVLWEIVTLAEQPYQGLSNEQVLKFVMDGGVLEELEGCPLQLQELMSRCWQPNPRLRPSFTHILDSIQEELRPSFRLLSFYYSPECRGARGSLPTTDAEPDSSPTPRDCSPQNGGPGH

Tests used:
Assay in all cases: kinase-Nluc reporter destabilization hit call (1 = scored as downregulated) (binary); higher = compound decreases kinase abundance
Details in all cases: K562; 2-18 h
ERN1 = ERN1 (UniProt O75460)
FGFR1 = FGFR1 (UniProt P11362)
FGFR2 = FGFR2 (UniProt P21802)
FGFR3 = FGFR3 (UniProt P22607)
FGR = FGR (UniProt P09769)
FLT3 = FLT3 (UniProt P36888)
FYN = FYN (UniProt P06241)
GSK3A = GSK3A (UniProt P49840)
HER2 = HER2 (UniProt P04626)
INSRR = INSRR (UniProt P14616)

Measured: kinase-Nluc reporter destabilization hit call

CCN(CC)CCOc1ccc(Nc2nc(-c3ccccc3NC(=O)CCN3CCN(C)CC3)nc3ccccc23)cc1 (2.5 µM)
inactive: ERN1 = 0 | FGFR1 = 0 | FGFR2 = 0 | FGFR3 = 0 | FGR 0 | FLT3 = 0 | FYN 0 | GSK3A 0 | HER2 = 0 | INSRR 0

CC(O)(C#Cc1ccc2c(c1)N(c1nc(N)ncc1Cl)CC2)c1nccs1 (stereo not given) (2.5 µM)
inactive: ERN1 = 0 | FGFR1 = 0 | FGFR2 = 0 | FGFR3 = 0 | FGR 0 | FLT3 = 0 | FYN 0 | GSK3A 0 | HER2 = 0 | INSRR 0

CC(C)=CCC/C(C)=C/CC/C(C)=C/C=C/C(C)=C/C(=O)O [Peretinoin] (10 µM)
inactive: ERN1 = 0 | FGFR1 = 0 | FGFR2 = 0 | FGFR3 = 0 | FGR 0 | FLT3 = 0 | FYN 0 | GSK3A 0 | HER2 = 0 | INSRR 0

COc1cc(F)ccc1-c1ncnc(Nc2cccc(C[S@](C)(=N)=O)c2)n1 [Atuveciclib] (2.5 µM)
inactive: ERN1 = 0 | FGFR1 = 0 | FGFR2 = 0 | FGFR3 = 0 | FGR 0 | FLT3 = 0 | FYN 0 | GSK3A 0 | HER2 = 0 | INSRR 0

C=CC(=O)N1CCN(C(=O)CNc2cc(I)c(Cl)cc2O)CC1 [K-Ras(G12C) inhibitor 12] (10 µM)
inactive: ERN1 = 0 | FGFR1 = 0 | FGFR2 = 0 | FGFR3 = 0 | FGR 0 | FLT3 = 0 | FYN 0 | GSK3A 0 | HER2 = 0 | INSRR 0

C=CC(=O)N1CCC[C@@H](n2nc(-c3ccc(Oc4ccccc4)cc3)c3c(N)n[nH]c(=O)c32)C1 [BTK inhibitor 17] (10 µM)
inactive: ERN1 = 0 | FGFR1 = 0 | FGFR2 = 0 | FGFR3 = 0 | FGR 0 | FLT3 = 0 | FYN 0 | GSK3A 0 | HER2 = 0 | INSRR 0

CNC(=O)c1cc2c(Oc3ccc(NC(=O)C4(C(=O)Nc5ccc(F)cc5)CC4)cc3)ccnc2cc1OC (2.5 µM)
inactive: ERN1 = 0 | FGFR1 = 0 | FGFR2 = 0 | FGFR3 = 0 | FGR 0 | FLT3 = 0 | FYN 0 | GSK3A 0 | HER2 = 0 | INSRR 0

CCCn1/c(=N/C(=O)c2cccc(C(N)=O)c2)[nH]c2ccccc21 [Takinib] (10 µM)
inactive: ERN1 = 0 | FGFR1 = 0 | FGFR2 = 0 | FGFR3 = 0 | FGR 0 | FLT3 = 0 | FYN 0 | GSK3A 0 | HER2 = 0 | INSRR 0

Cc1nn(C)cc1-c1nc2c(N3CCN(Cc4ccc(Cl)cc4)CC3)c(Cl)cnc2[nH]1 (10 µM)
inactive: ERN1 = 0 | FGFR1 = 0 | FGFR2 = 0 | FGFR3 = 0 | FGR 0 | FLT3 = 0 | FYN 0 | GSK3A 0 | HER2 = 0 | INSRR 0

CC(C)=CC[C@@H](O)C1=CC(=O)c2c(O)ccc(O)c2C1=O [Shikonin] (10 µM)
inactive: ERN1 = 0 | FGFR1 = 0 | FGFR2 = 0 | FGFR3 = 0 | FGR 0 | FLT3 = 0 | FYN 0 | GSK3A 0 | HER2 = 0 | INSRR 0

COCCOCCc1c(C)c2cc(OC)c(O)c(C=O)c2oc1=O (10 µM)
inactive: ERN1 = 0 | FGFR1 = 0 | FGFR2 = 0 | FGFR3 = 0 | FGR 0 | FLT3 = 0 | FYN 0 | GSK3A 0 | HER2 = 0 | INSRR 0

CNC(=O)c1ccc2c(c1)ncn2-c1ccc(CC(=O)OC(C)(C)C)cc1 (10 µM)
inactive: ERN1 = 0 | FGFR1 = 0 | FGFR2 = 0 | FGFR3 = 0 | FGR 0 | FLT3 = 0 | FYN 0 | GSK3A 0 | HER2 = 0 | INSRR 0

CNC(=O)c1ccc2c(C(=Nc3cccc(CN(C)C)c3)c3ccccc3)c(O)[nH]c2c1 [MEK inhibitor] (10 µM)
inactive: ERN1 = 0 | FGFR1 = 0 | FGFR2 = 0 | FGFR3 = 0 | FGR 0 | FLT3 = 0 | FYN 0 | GSK3A 0 | HER2 = 0 | INSRR 0

COc1ccc2c(Oc3ccc4c(C(=O)Nc5ccccc5N)cccc4c3)ccnc2c1 [Chiauranib] (10 µM)
inactive: ERN1 = 0 | FGFR1 = 0 | FGFR2 = 0 | FGFR3 = 0 | FGR 0 | FLT3 = 0 | FYN 0 | GSK3A 0 | HER2 = 0 | INSRR 0

C=C1CCC[C@]2(C)C=C3OC(=O)C(C)=C3C[C@@H]12 [Atractylenolide I] (10 µM)
inactive: ERN1 = 0 | FGFR1 = 0 | FGFR2 = 0 | FGFR3 = 0 | FGR 0 | FLT3 = 0 | FYN 0 | GSK3A 0 | HER2 = 0 | INSRR 0

Cc1c(C(=O)Nc2ccc(Oc3ccnc4[nH]cc(-c5ccccc5)c34)c(F)c2)c(=O)n(-c2ccc(F)cc2)n1C (10 µM)
inactive: ERN1 = 0 | FGFR1 = 0 | FGFR2 = 0 | FGFR3 = 0 | FGR 0 | FLT3 = 0 | FYN 0 | GSK3A 0 | HER2 = 0 | INSRR 0

COc1cc2ncnc(Nc3ccc(O)c(Br)c3)c2cc1OC (10 µM)
inactive: ERN1 = 0 | FGFR1 = 0 | FGFR2 = 0 | FGFR3 = 0 | FGR 0 | FLT3 = 0 | FYN 0 | GSK3A 0 | HER2 = 0 | INSRR 0

Clc1ccc(C(c2ccc(Cl)cc2)[n+]2ccn(CC(OCc3ccc(Cl)cc3Cl)c3ccc(Cl)cc3Cl)c2)cc1 (stereo not given) [Calmidazolium chloride] (2.5 µM)
inactive: ERN1 = 0 | FGFR1 = 0 | FGFR2 = 0 | FGFR3 = 0 | FGR 0 | FLT3 = 0 | FYN 0 | GSK3A 0 | HER2 = 0 | INSRR 0

O=c1cc(N2CCOCC2)oc2c(-c3ccc4c(c3)OCCO4)csc12 (2.5 µM)
inactive: ERN1 = 0 | FGFR1 = 0 | FGFR2 = 0 | FGFR3 = 0 | FGR 0 | FLT3 = 0 | FYN 0 | GSK3A 0 | HER2 = 0 | INSRR 0

COc1c(O)cc2oc(-c3ccc(O)cc3)cc(=O)c2c1O [Hispidulin] (10 µM)
inactive: ERN1 = 0 | FGFR1 = 0 | FGFR2 = 0 | FGFR3 = 0 | FGR 0 | FLT3 = 0 | FYN 0 | GSK3A 0 | HER2 = 0 | INSRR 0

CC(C)n1c([C@H](C)Nc2ncnc(N)c2C#N)cc2cccc(-c3ccc(=O)n(C)c3)c2c1=O (10 µM)
inactive: ERN1 = 0 | FGFR1 = 0 | FGFR2 = 0 | FGFR3 = 0 | FGR 0 | FLT3 = 0 | FYN 0 | GSK3A 0 | HER2 = 0 | INSRR 0

Of the compounds above, these have an NH in an aromatic ring.
C=CC(=O)N1CCC[C@@H](n2nc(-c3ccc(Oc4ccccc4)cc3)c3c(N)n[nH]c(=O)c32)C1 [BTK inhibitor 17] (10 µM)
inactive: ERN1 = 0 | FGFR1 = 0 | FGFR2 = 0 | FGFR3 = 0 | FGR 0 | FLT3 = 0 | FYN 0 | GSK3A 0 | HER2 = 0 | INSRR 0

CCCn1/c(=N/C(=O)c2cccc(C(N)=O)c2)[nH]c2ccccc21 [Takinib] (10 µM)
inactive: ERN1 = 0 | FGFR1 = 0 | FGFR2 = 0 | FGFR3 = 0 | FGR 0 | FLT3 = 0 | FYN 0 | GSK3A 0 | HER2 = 0 | INSRR 0

Cc1nn(C)cc1-c1nc2c(N3CCN(Cc4ccc(Cl)cc4)CC3)c(Cl)cnc2[nH]1 (10 µM)
inactive: ERN1 = 0 | FGFR1 = 0 | FGFR2 = 0 | FGFR3 = 0 | FGR 0 | FLT3 = 0 | FYN 0 | GSK3A 0 | HER2 = 0 | INSRR 0

CNC(=O)c1ccc2c(C(=Nc3cccc(CN(C)C)c3)c3ccccc3)c(O)[nH]c2c1 [MEK inhibitor] (10 µM)
inactive: ERN1 = 0 | FGFR1 = 0 | FGFR2 = 0 | FGFR3 = 0 | FGR 0 | FLT3 = 0 | FYN 0 | GSK3A 0 | HER2 = 0 | INSRR 0

Cc1c(C(=O)Nc2ccc(Oc3ccnc4[nH]cc(-c5ccccc5)c34)c(F)c2)c(=O)n(-c2ccc(F)cc2)n1C (10 µM)
inactive: ERN1 = 0 | FGFR1 = 0 | FGFR2 = 0 | FGFR3 = 0 | FGR 0 | FLT3 = 0 | FYN 0 | GSK3A 0 | HER2 = 0 | INSRR 0

Going on with the list.

C=CC(=O)Nc1cc(Nc2nccc(-c3cn(C)c4ccccc34)n2)c(OC)cc1OCCN(C)C [Rezivertinib] (2.5 µM)
inactive: ERN1 = 0 | FGFR1 = 0 | FGFR2 = 0 | FGFR3 = 0 | FGR 0 | FLT3 = 0 | FYN 0 | GSK3A 0 | HER2 = 0 | INSRR 0

CN1CCC(CNc2ccc3ncc(-c4cccc(OC(F)(F)F)c4)n3n2)CC1 (2.5 µM)
inactive: ERN1 = 0 | FGFR1 = 0 | FGFR2 = 0 | FGFR3 = 0 | FGR 0 | FLT3 = 0 | FYN 0 | GSK3A 0 | HER2 = 0 | INSRR 0

NC(=O)c1cnc(-c2ccc(C3(N)CCC3)cc2)c(-c2ccccc2)c1 (10 µM)
inactive: ERN1 = 0 | FGFR1 = 0 | FGFR2 = 0 | FGFR3 = 0 | FGR 0 | FLT3 = 0 | FYN 0 | GSK3A 0 | HER2 = 0 | INSRR 0

Cn1c(CNc2cccc(C(=O)NCc3ccccc3C(F)(F)F)c2)nnc1-c1ccncc1 (10 µM)
inactive: ERN1 = 0 | FGFR1 = 0 | FGFR2 = 0 | FGFR3 = 0 | FGR 0 | FLT3 = 0 | FYN 0 | GSK3A 0 | HER2 = 0 | INSRR 0

Cc1cnc(NC(=O)c2cc(Oc3cnc(C(=O)N(C)C)nc3)c3cc(C)oc3c2)cn1 (10 µM)
inactive: ERN1 = 0 | FGFR1 = 0 | FGFR2 = 0 | FGFR3 = 0 | FGR 0 | FLT3 = 0 | FYN 0 | GSK3A 0 | HER2 = 0 | INSRR 0

NCCOc1ccc(Cl)cc1C(=O)Nc1ccc([N+](=O)[O-])cc1Cl [HJC0152 hydrochloride] (2 µM)
inactive: ERN1 = 0 | FGFR1 = 0 | FGFR2 = 0 | FGFR3 = 0 | FGR 0 | FLT3 = 0 | FYN 0 | GSK3A 0 | HER2 = 0 | INSRR 0

Nc1[nH]nc2nc(-c3ccc(NS(=O)(=O)c4cc(Cl)ccc4Cl)cc3)cnc12 (10 µM)
inactive: ERN1 = 0 | FGFR1 = 0 | FGFR2 = 0 | FGFR3 = 0 | FGR 0 | FLT3 = 0 | FYN 0 | GSK3A 0 | HER2 = 0 | INSRR 0

Nc1ncc(-c2ccnc(Nc3ccncc3)n2)c(CC2CC2)n1 (10 µM)
inactive: ERN1 = 0 | FGFR1 = 0 | FGFR2 = 0 | FGFR3 = 0 | FGR 0 | FLT3 = 0 | FYN 0 | GSK3A 0 | HER2 = 0 | INSRR 0

Cc1cc([C@@H](C)Nc2ccccc2C(=O)O)c2nc(N3CCOCC3)cc(=O)n2c1 (10 µM)
inactive: ERN1 = 0 | FGFR1 = 0 | FGFR2 = 0 | FGFR3 = 0 | FGR 0 | FLT3 = 0 | FYN 0 | GSK3A 0 | HER2 = 0 | INSRR 0

CCN(CC)CCCC(C)Nc1nc(C)cc(Nc2ccc3nc(C)cc(N)c3c2)n1 (stereo not given) (10 µM)
inactive: ERN1 = 0 | FGFR1 = 0 | FGFR2 = 0 | FGFR3 = 0 | FGR 0 | FLT3 = 0 | FYN 0 | GSK3A 0 | HER2 = 0 | INSRR 0

COc1ccc(Nc2ncc(C(F)(F)F)c(NC3CC3)n2)cc1OC (10 µM)
inactive: ERN1 = 0 | FGFR1 = 0 | FGFR2 = 0 | FGFR3 = 0 | FGR 0 | FLT3 = 0 | FYN 0 | GSK3A 0 | HER2 = 0 | INSRR 0

Cc1cccc(/C=N/Nc2cc(N3CCOCC3)n3nc(-c4ccncc4)cc3n2)c1 (10 µM)
inactive: ERN1 = 0 | FGFR1 = 0 | FGFR2 = 0 | FGFR3 = 0 | FGR 0 | FLT3 = 0 | FYN 0 | GSK3A 0 | HER2 = 0 | INSRR 0
